Data as given in PubChem BioAssay AID1053208 (Peter MacCallum Cancer Centre, 2014).
This is one part, drawn at random, of about 17,000 deposited reagents. Of all reagents, 788 (4.7%) got an active call. 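Calls rest on z-score classes alone; an extra cut-off of viability at most 70% of control was not applied to them.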 Not all columns of the deposit are shown.

- Aim: 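Find knock-downs that sensitise mouse osteosarcoma cells to doxorubicin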 (primary screen)
- System: mouse osteosarcoma cells, early-passage culture from an engineered mouse model of fibroblastic bone tumour
- Knock-down reagent: siRNA pool against mouse genes, 40 nM
- Time to read-out: about 120 h (48 h before drug, then 72 h with drug)
- Conditions: doxorubicin 100 nM for 72 h, roughly 30-40% inhibitory dose
- Measurement: 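Viability read as ATP luminescence after 72 h of 100 nM doxorubicin or none, duplicate wells averaged, scaled to non-targeting siRNA, then expressed as robust z-scores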
- Scale: viability z-score with doxorubicin: higher = more viable cells under doxorubicin; viability z-score without drug: higher = more viable cells with knock-down alone
- Call rule: 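a pool counts as active when its viability z-score with doxorubicin is -2 or below and its z-score without drug lies between -2 and 2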

Lcn10 (lipocalin 10) [SID152266429] scored combined z-score class no change with or without drug; viability z-score with doxorubicin -0.11; viability z-score without drug 0.17; inactive.
After knock-down of Gnat1 (G protein subunit alpha transducin 1) [SID152326886], the screen gave combined z-score class no change with or without drug; viability z-score with doxorubicin 1.35; viability z-score without drug 1.85; inactive.
Mtmr9 (myotubularin related protein 9) [SID152327774] gave combined z-score class high cell count with doxorubicin only; viability z-score with doxorubicin 2.25; viability z-score without drug -0.67; inactive.
With knock-down of Or2bd2 (olfactory receptor family 2 subfamily BD member 2) [SID152335069] the results were combined z-score class no change with or without drug; viability z-score with doxorubicin -0.67; viability z-score without drug 1.18; inactive.
Knock-down of Sdf2l1 (stromal cell-derived factor 2-like 1) [SID152318073] gave: combined z-score class high cell count without drug only; viability z-score with doxorubicin 1.35; viability z-score without drug 2.87; inactive.
Knock-down of Bloc1s3 (biogenesis of lysosomal organelles complex-1, subunit 3) [SID152281957] gave: combined z-score class high cell count without drug only; viability z-score with doxorubicin 0.9; viability z-score without drug 2.53; inactive.
Silencing of Mrpl11 (mitochondrial ribosomal protein L11) [SID152319180] resulted in: combined z-score class no change with or without drug; viability z-score with doxorubicin 1.8; viability z-score without drug -0.17; inactive.
For DLC1 [SID152259672], the entry reads combined z-score class no change with or without drug; viability z-score with doxorubicin 0; viability z-score without drug 1.35; inactive.
After knock-down of Gfra3 [SID152329089], the screen gave combined z-score class no change with or without drug; viability z-score with doxorubicin -1.8; viability z-score without drug -0.17; inactive.
With knock-down of Dcp1a (decapping mRNA 1A) [SID152285300], the screen gave combined z-score class no change with or without drug; viability z-score with doxorubicin 0.22; viability z-score without drug 0; inactive.
With knock-down of Rab37 (RAB37, member RAS oncogene family) [SID152274440], the record shows combined z-score class no change with or without drug; viability z-score with doxorubicin 0; viability z-score without drug 0.17; inactive.
Silencing of Slc26a1 [SID152316389] resulted in: combined z-score class no change with or without drug; viability z-score with doxorubicin 0.22; viability z-score without drug 1.52; inactive.
Or2z8 (olfactory receptor family 2 subfamily Z member 8) [SID152322345] scored combined z-score class no change with or without drug; viability z-score with doxorubicin -0.45; viability z-score without drug 0.84; inactive.
Or8b101 (olfactory receptor family 8 subfamily B member 101) [SID152270990] scored combined z-score class no change with or without drug; viability z-score with doxorubicin 0; viability z-score without drug 1.52; inactive.
With knock-down of Chn2 (chimerin 2) [SID152276020] the results were combined z-score class no change with or without drug; viability z-score with doxorubicin 0.45; viability z-score without drug 1.01; inactive.
Depletion of Svil (supervillin) [SID152259080] came out at: combined z-score class no change with or without drug; viability z-score with doxorubicin 0.67; viability z-score without drug -0.67; inactive.
Depletion of Stox2 (storkhead box 2) [SID152334783] resulted in: combined z-score class high cell count with doxorubicin only; viability z-score with doxorubicin 2.02; viability z-score without drug 1.01; inactive.
Silencing of Or5ac25 (olfactory receptor family 5 subfamily AC member 25) [SID152303916] resulted in: combined z-score class no change with or without drug; viability z-score with doxorubicin 0.45; viability z-score without drug 1.52; inactive.
Silencing of Or5ac25 (olfactory receptor family 5 subfamily AC member 25) [SID152323723] resulted in: combined z-score class no change with or without drug; viability z-score with doxorubicin -0.34; viability z-score without drug 0.67; inactive.
Against Ddx47 (DEAD box helicase 47) [SID152283398], the entry reads combined z-score class no change with or without drug; viability z-score with doxorubicin 0.11; viability z-score without drug -0.84; inactive.
Tex19.1 (testis expressed gene 19.1) [SID152342774] gave combined z-score class no change with or without drug; viability z-score with doxorubicin 0; viability z-score without drug 0.84; inactive.
After knock-down of Smad1 (SMAD family member 1) [SID152308460] the results were combined z-score class no change with or without drug; viability z-score with doxorubicin 0.9; viability z-score without drug 0.51; inactive.

Records above whose gene name starts with G or g:
Gnat1 (G protein subunit alpha transducin 1) [SID152326886] → combined z-score class: no change with or without drug; viability z-score with doxorubicin: 1.35; viability z-score without drug: 1.85; Outcome: inactive
Gfra3 [SID152329089] → combined z-score class: no change with or without drug; viability z-score with doxorubicin: -1.8; viability z-score without drug: -0.17; Outcome: inactive

The results go on:
Silencing of Rps23 (ribosomal protein S23) [SID152266956] resulted in: combined z-score class low cell count with and without drug; viability z-score with doxorubicin -4.72; viability z-score without drug -2.36; inactive.
For Sestd1 (SEC14 and spectrin domains 1) [SID152298420] the deposit lists combined z-score class no change with or without drug; viability z-score with doxorubicin 1.35; viability z-score without drug 1.52; inactive.
Silencing of Dnase1 (deoxyribonuclease I) [SID152303806] came out at: combined z-score class no change with or without drug; viability z-score with doxorubicin 0.9; viability z-score without drug 0; inactive.
Uap1 (UDP-N-acetylglucosamine pyrophosphorylase 1) [SID152314802] showed combined z-score class high cell count with doxorubicin only; viability z-score with doxorubicin 2.14; viability z-score without drug 1.01; inactive.
Depletion of Kars1 (lysyl-tRNA synthetase 1) [SID152304133] came out at: combined z-score class no change with or without drug; viability z-score with doxorubicin -0.79; viability z-score without drug 0.51; inactive.
Avil (advillin) [SID152325867] scored combined z-score class no change with or without drug; viability z-score with doxorubicin -0.22; viability z-score without drug -0.84; inactive.
Against Nckap5 (NCK-associated protein 5) [SID152337589], the entry reads combined z-score class no change with or without drug; viability z-score with doxorubicin 0.9; viability z-score without drug 0.67; inactive.
Map3k2 (mitogen-activated protein kinase kinase kinase 2) [SID152293534] scored combined z-score class no change with or without drug; viability z-score with doxorubicin -0.79; viability z-score without drug -1.35; inactive.
For Zbtb37 (zinc finger and BTB domain containing 37) [SID152310601], the entry reads combined z-score class no change with or without drug; viability z-score with doxorubicin -0.22; viability z-score without drug -0.51; inactive.
After knock-down of Rprd1a (regulation of nuclear pre-mRNA domain containing 1A) [SID152279443], the screen gave combined z-score class no change with or without drug; viability z-score with doxorubicin 0.79; viability z-score without drug -0.51; inactive.
With knock-down of Loxl2 (lysyl oxidase-like 2) [SID152327720], the screen gave combined z-score class high cell count with doxorubicin only; viability z-score with doxorubicin 2.02; viability z-score without drug 1.18; inactive.
After knock-down of Chgb (chromogranin B) [SID152295303] the results were combined z-score class no change with or without drug; viability z-score with doxorubicin 1.01; viability z-score without drug 1.18; inactive.
With knock-down of Crisp1 (cysteine-rich secretory protein 1) [SID152259145], the record shows combined z-score class no change with or without drug; viability z-score with doxorubicin 0.9; viability z-score without drug 0; inactive.
Sim1 (single-minded family bHLH transcription factor 1) [SID152325858] showed combined z-score class no change with or without drug; viability z-score with doxorubicin -0.11; viability z-score without drug 0.17; inactive.
